Reference: patent US4490370A, “Naphthylglycyl cephalosporin derivatives” (priority 1983, dated 1984)

Legend:
Type in all cases: biochemical
Details in all cases: lower numbers mean greater stability
[1] = system: β-lactamase (organism 265A); test: Stability to β-lactamases, 265A
Source text: (§1) The compounds of the invention also have good stability to β-lactamases.

[2] = system: β-lactamase (organism PS185); test: Stability to β-lactamases, PS185
Source text: as §1

[3] = system: β-lactamase (TEM); test: Stability to β-lactamases, TEM
Source text: as §1

[4] = system: β-lactamase (organism 1082E); test: Stability to β-lactamases, 1082E
Source text: as §1

[5] = system: β-lactamase (organism 1313G); test: Stability to β-lactamases, 1313G
Source text: as §1

SMILES: CC1=C(C(=O)O)N2C(=O)[C@@H](NC(=O)[C@H](N)c3ccccc3)[C@H]2SC1 [Cephalexin, reference compound]
- Stability to β-lactamases [1]: 72
- Stability to β-lactamases [2]: 37
- Stability to β-lactamases [3]: 1
- Stability to β-lactamases [4]: 6
- Stability to β-lactamases [5]: 254
